Publication PMC12933668
Construct, isoform or probe ends are uncertain for at least one entry. A negative result means that nothing was seen under these conditions. For some of these results: Tags and fusion partners may be left off the protein sequences shown.

Columns and labels:
Ppbbx24-del = test: EMSA; conditions: Beyotime biotin EMSA kits GS008/GS009, manufacturer protocol, pH and temperature not given, recombinant protein
PpBBX24 = target: T1, PpBBX24 (UniProt D9ZIX0); test: EMSA; conditions: Beyotime biotin EMSA kits GS008/GS009, manufacturer protocol, pH and temperature not given, recombinant protein
T1 sequence (looked up, limits assumed): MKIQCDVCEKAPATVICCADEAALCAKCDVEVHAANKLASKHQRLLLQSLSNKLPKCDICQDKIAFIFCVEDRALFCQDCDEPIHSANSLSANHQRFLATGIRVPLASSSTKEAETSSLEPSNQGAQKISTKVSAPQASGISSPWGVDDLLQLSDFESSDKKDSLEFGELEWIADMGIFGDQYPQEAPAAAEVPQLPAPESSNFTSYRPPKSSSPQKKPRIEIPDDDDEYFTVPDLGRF

| Sequence | binding result (Ppbbx24-del; label: biotin) | binding result (PpBBX24; label: biotin) | binding result (Ppbbx24-del) | binding result (PpBBX24) |
| --- | --- | --- | --- | --- |
| CTCAGCTACGCCCTCGACACGTGAGGCTGAATTAACCAAA (double strand) [PpMYB5 Probe (G-box)] | binds | binds | – | – |
| CTCAGCTACGCCCTCGAAAACTCAGGCTGAATTAACCAAA (double strand) [PpMYB5 Mutant Probe] | – | – | no binding | no binding |
